Measured values as given in patent publication US20210227843A1, “A TEMPERING COMPOSITION FOR TEMPERING GRAIN AND CONTROLLING PATHOGENS IN AND/OR ON SAID GRAIN, AN OXIDIZING COMPOSITION FOR PREPARING SAID TEMPERING COMPOSITION, A USE OF SAID TEMPERING COMPOSITION AND A METHOD OF USE OF SAID TEMPERING COMPOSITION” (AGRI-NEO INC., priority 2017, published 2021).

Test: Flour functionality, sensory and physical characteristics after tempering wheat in an organic flour mill (Example 1)
Settings: 2 L per ton of wheat (citric acid 2 Kg); 16 h hold

O=C(O)CC(O)(CC(=O)O)C(=O)O [Citric acid]
% Hydration: 60% | Bread size-mold: 158 mm | EXTENSO 1 3 h 30 after fermen. Energy: 75 cm-2 | EXTENSO 1 3 h 30 after fermen. Maximum: 298 mm | EXTENSO 1 3 h 30 after fermen. Ratio Max: 1.5 EU/mm | EXTENSO 1 3 h 30 after fermen. Resistance: 207 EU | EXTENSO 1 Energy: 130 cm-2 | EXTENSO 1 Extensibility: 149 mm | EXTENSO 1 Resistance (EU = extensograph petrin outle tunit): 459 EU | EXTENSO 2 Division after fermen Energy: 136 cm-2 | EXTENSO 2 Division after fermen Extensibility: 136 mm | EXTENSO 2 Division after fermen Maximum: 809 mm | EXTENSO 2 Division after fermen Ratio: 4.5 EU/mm | EXTENSO 2 Division after fermen Ratio Max: 6 EU/mm | EXTENSO 2 Division after fermen Resistance: 613 EU | FOSS % Proteins: 11.32% | FOSS % gluten: 31.97% | FOSS % humidity: 13.5% | GPT % Gluten—Wet: 34.8% | GPT % Protein content: 11.3% | IDC: 367 s | MIXOLAB Aff 12 min: 0.022 Nm | PMT: 185 s | VMI Temperature: 23.6 °C
